Measurements published in paper PMC12651750 (Cells, 2025).

Tested on: Jurkat cells
Assay: Whole proteomic analysis (mass spectrometry)
Assay type: cell-based, human
Conditions: 48 h
Protocol: The cell cultivation was completed in a 60 mm plate; the number of cells accounted for roughly 30–40% of the orifice. We stimulated cells with 1 μM and 5 μM of NBU-2 and 0.1% DMSO. […] After 48 h, the cells were collected, about 200 μL of NP-40 Lysis Buffer containing phosphatase inhibitor and protease inhibitor was added, and the cells were lysed to release the proteins. Measure the protein concentration of each group of samples using the BCA protein quantification method. The disulfide bonds in the protein structure were reduced using TCEP and then alkylated with IAA. Samples were added to a centrifugal filtration unit with an ultrafiltration membrane, and proteins were digested using trypsin 2 times, the first time for 4 h and the second time overnight with the addition of an appropriate amount of trypsin. […] Samples were reconstituted using 0.1% formic acid, and approximately 1 μg of protein was taken for detection using mass spectrometry.
Mass spectrometry analysis was performed using an Orbitrap Fusion Lumos mass spectrometer (Thermo Fisher Scientific, Shanghai, China). Chromatographic separations were performed on an Acclaim PepMap C18 column using a 60 min linear gradient elution program: the proportion of mobile phase B (acetonitrile containing 0.1% formic acid) was increased from 2% to 35%, and the flow rate was maintained at 250 nL/min. Raw data were processed using Proteome Discoverer 2.3 software (Thermo Fisher Scientific, Shanghai, China) and compared with the UniProt human protein database. Peptide-mass spectrometry matching (PSM) was filtered using the Percolator algorithm, with a false positive rate (FDR) of less than 1% [14].

For `Cc1cccc2c(=O)c3c(NCCCCCC(=O)NO)ccc([N+](=O)[O-])c3[nH]c12` [NBU-2, N-hydroxy-6-((5-methyl-4-nitro-9-oxo-9,10-dihydroacridin-1-yl)amino)hexanamide], the “Proteins down-regulated after drug treatment” value (1 μM and 5 μM) was 81, the “Proteins up-regulated after drug treatment” value (1 μM and 5 μM) was 64 and the “Differentially expressed proteins (same trend in 1 μM and 5 μM groups)” value (p < 0.05 and |Log2 FC| > 1) was 145.
